This is an account of results in patent US20020045591A1, “Methods and therapeutic compositions for treating cancer” (priority 1998, published 2002).

The data set has as its system CHO cells. The data set is described as follows: Triton X-100 fractionation of CHO cells. In kind it is cell-based. As to conditions: FIG. 3.
Where [1] appears, read: CHO cells expressing the derivative.

B1: N-cadherin tail: Cytoplasmic domain of chicken N-cadherin tagged with a Flag epitope (protein)
chain: MKRRDKERQAKQLLIDPEDDVRDNILKYDEEGGGEEDQDYDLSQLQQPDTVEPDAIKPVGIRRLDERPIHAEPQYPVRSAAPHPGDIGDFINEGLKAADNDPTAPPYDSLLVFDYEGSGSTAGSLSSLNSSSSGGEQDYDYLNDWGPRFKKLADMYGGGDD
modifications: left off: small tags and cut ends
Turning to B1, the “fraction of β-catenin Triton-soluble” value under setting [1] is reported as 64%. Also, the “fraction of cadherin derivative Triton-soluble” value (stably transfected CHO cells) was 74%.

B2: N-cadherin: Full length chicken N-cadherin cloned into the pECE expression vector (protein)
chain: DWVIPPINLPENSRGPFPQELVRIRSDRDKSLSLRYSVTGPGADQPPTGIFIINPISGQLSVTKPLDREQIASFHLRAHAVDVNGNQVENPIDIVINVIDMNDNRPEFLHQVWNGTVPEGSKPGTYVMTVTAIDADDPNAQNGMLRYRILSQAPSSPSPNMFTINNETGDIITVAAGLDREKVQQYTLIIQATDMEGNPTYGLSNTATAVITVTDVNDNPPEFTAMTFYGEVPENRVDVIVANLTVTDKDQPHTPAWNARYQMTGGDPTGQFTILTDPNSNDGLVTVVKPIDFETNRMFVLTVAAENQVPLAKGIQHPPQSTATVSITVIDVNESPYFVPNPKLVRQEEGLLAGSMLTTFTARDPDRYMQQTSLRYSKLSDPANWLKIDPVNGQITTTAVLDRESIYVQNNMYNATFLASDNGIPPMSGTGTLQIYLLDINDNAPQVNPKEATTCETLQPNAINITAVDPDIDPNAGPFAFELPDSPPSIKRNWTIVRISGDHAQLSLRIRFLEAGIYDVPIVITDSGNPHASSTSVLKVKVCQCDINGDCTDVDRIVGAGLGTGAIIAILLCIIILLILVLMFVVWMKRRDKERQAKQLLIDPEDDVRDNILKYDEEGGGEEDQDYDLSQLQQPDTVEPDAIKPVGIRRLDERPIHAEPQYPVRSAAPHPGDIGDFINEGLKAADNDPTAPPYDSLLVFDYEGSGSTAGSLSSLNSSSSGGEQDYDYLNDWGPRFKKLADMYGGGDD
For B2, under setting [1], the “fraction of β-catenin detergent-insoluble” value came out at 72%. The “fraction of cadherin derivative in Triton X-100-insoluble fraction” value (stably transfected CHO cells) amounted to 71%.
